{"source": "PubChem BioAssay AID504804 – Drosophila RNAi Screening Center, 2011", "test": "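dsRNAs that improve Kc cell survival under doxorubicin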 (primary screen)", "cell system": "Drosophila Kc cells", "reagent": "long dsRNA against Drosophila genes, 0.5 µg dsRNA per well", "time to read-out": "96 h (48 h knock-down, then 48 h drug)", "conditions": "doxorubicin 5 µg/ml for 48 h, added 48 h after dsRNA", "measurement": "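Luminescent ATP counts per replicate, not normalised, reflecting viable cells after 48 h dsRNA knock-down followed by 48 h of 5 µg/ml doxorubicin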", "reading the numbers": "raw ATP luminescence: higher = more viable cells, protection from doxorubicin", "hit rule": "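z-score of 2 or more over plate mean in both duplicates, retained only when retests and separate dsRNAs confirm the protection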", "note": "In all, the deposit lists about 19,000 reagents; shown is a random part of those that have a named target and a result. Over the whole deposit, 47 (0.25%) got an active call. 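Signals are raw, not normalised; exact z-scores behind calls not deposited; actives needed confirmation, so some wells reaching 2 SD are inactive.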 Unmarked entries are inactive. A plus sign joins genes that one reagent is predicted to hit."}
{"gene knocked down":"CG11294","dsRNA":"DRSC17777","raw ATP luminescence, replicate 1":20970,"raw ATP luminescence, replicate 2":21020}
{"gene knocked down":"CG14893","dsRNA":"DRSC15015","raw ATP luminescence, replicate 1":74210,"raw ATP luminescence, replicate 2":70620}
{"gene knocked down":"GstD4","dsRNA":"DRSC16685","raw ATP luminescence, replicate 1":56457,"raw ATP luminescence, replicate 2":62637}
{"gene knocked down":"sta","dsRNA":"DRSC18838","raw ATP luminescence, replicate 1":34490,"raw ATP luminescence, replicate 2":31810}
{"gene knocked down":"CG32073","dsRNA":"DRSC09087","raw ATP luminescence, replicate 1":2.05e5,"raw ATP luminescence, replicate 2":1.37e5}
{"gene knocked down":"CG32073","dsRNA":"DRSC09894","raw ATP luminescence, replicate 1":85700,"raw ATP luminescence, replicate 2":66013}
{"gene knocked down":"CG14835","dsRNA":"DRSC10205","raw ATP luminescence, replicate 1":74443,"raw ATP luminescence, replicate 2":88270}
{"gene knocked down":"Gp150","dsRNA":"DRSC04618","raw ATP luminescence, replicate 1":26417,"raw ATP luminescence, replicate 2":34257}
{"gene knocked down":"Cpes","dsRNA":"DRSC04475","raw ATP luminescence, replicate 1":74087,"raw ATP luminescence, replicate 2":56503}
{"gene knocked down":"CG13527","dsRNA":"DRSC04169","raw ATP luminescence, replicate 1":66383,"raw ATP luminescence, replicate 2":51797}
{"gene knocked down":"Cyp9f3","dsRNA":"DRSC16636","raw ATP luminescence, replicate 1":57917,"raw ATP luminescence, replicate 2":53467}
{"gene knocked down":"fd59A","dsRNA":"DRSC04685","raw ATP luminescence, replicate 1":68637,"raw ATP luminescence, replicate 2":60460}
{"gene knocked down":"mRpL9","dsRNA":"DRSC15678","raw ATP luminescence, replicate 1":91320,"raw ATP luminescence, replicate 2":76350}
{"gene knocked down":"Best1","dsRNA":"DRSC16909","raw ATP luminescence, replicate 1":59947,"raw ATP luminescence, replicate 2":42480}
{"gene knocked down":"CG18764","dsRNA":"DRSC15391","raw ATP luminescence, replicate 1":49653,"raw ATP luminescence, replicate 2":59380}
{"gene knocked down":"Hrb87F","dsRNA":"DRSC16708","raw ATP luminescence, replicate 1":40010,"raw ATP luminescence, replicate 2":22690}

Sorted by “raw ATP luminescence, replicate 2” (highest first): some entries from above
{"gene knocked down":"CG14893","dsRNA":"DRSC15015","raw ATP luminescence, replicate 1":74210,"raw ATP luminescence, replicate 2":70620}
{"gene knocked down":"GstD4","dsRNA":"DRSC16685","raw ATP luminescence, replicate 1":56457,"raw ATP luminescence, replicate 2":62637}
{"gene knocked down":"CG11294","dsRNA":"DRSC17777","raw ATP luminescence, replicate 1":20970,"raw ATP luminescence, replicate 2":21020}

Continued.
{"gene knocked down":"mRpL33","dsRNA":"DRSC18319","raw ATP luminescence, replicate 1":45640,"raw ATP luminescence, replicate 2":45500}
{"gene knocked down":"Stacl + CG8179 (retired record)","dsRNA":"DRSC07091","raw ATP luminescence, replicate 1":75173,"raw ATP luminescence, replicate 2":86593}
{"gene knocked down":"Polr3B","dsRNA":"DRSC07536","raw ATP luminescence, replicate 1":50647,"raw ATP luminescence, replicate 2":44290}
{"gene knocked down":"dlg1","dsRNA":"DRSC18895","raw ATP luminescence, replicate 1":85503,"raw ATP luminescence, replicate 2":70663}
{"gene knocked down":"dlg1","dsRNA":"DRSC18896","raw ATP luminescence, replicate 1":2.35e5,"raw ATP luminescence, replicate 2":2.08e5}
{"gene knocked down":"dlg1","dsRNA":"DRSC19767","raw ATP luminescence, replicate 1":2.87e5,"raw ATP luminescence, replicate 2":2.57e5}
{"gene knocked down":"Rdh","dsRNA":"DRSC08063","raw ATP luminescence, replicate 1":32330,"raw ATP luminescence, replicate 2":1.80e5}
{"gene knocked down":"Rdh","dsRNA":"DRSC08434","raw ATP luminescence, replicate 1":34767,"raw ATP luminescence, replicate 2":47083}
{"gene knocked down":"hry","dsRNA":"DRSC11353","raw ATP luminescence, replicate 1":23423,"raw ATP luminescence, replicate 2":25720}
{"gene knocked down":"CG6356","dsRNA":"DRSC16026","raw ATP luminescence, replicate 1":61200,"raw ATP luminescence, replicate 2":68050}
{"gene knocked down":"daed","dsRNA":"DRSC00299","raw ATP luminescence, replicate 1":1.14e5,"raw ATP luminescence, replicate 2":88690}
{"gene knocked down":"FucTC","dsRNA":"DRSC20966","raw ATP luminescence, replicate 1":2.26e5,"raw ATP luminescence, replicate 2":2.22e5}
